Experimental data: patent publication US20180147198A1, “COMBINATIONS OF PFKFB3 INHIBITORS AND IMMUNE CHECKPOINT INHIBITORS TO TREAT CANCER” (UNIVERSITY OF LOUISVILLE RESEARCH FOUNDATION, INC., priority 2015, published 2018)
Entries after “also recorded” stand apart in the source; their conditions may differ. At least one compound was matched to its structure with a doubt left.

Assays:
A375-MDSC [1] = test: T cell suppression by established A375-MDSCs pre-treated with PFK-158; format: cell-based, human; conditions: A375-MDSCs pre-treated 5 μM for 24 hours just prior to co-incubation with T cells
[2] = system: peripheral blood mononuclear cells; test: Flow cytometry of peripheral blood mononuclear cells of a breast cancer patient receiving PFK-158; format: in vivo, human
Method: An unexpected stability of tumors in multiple patients receiving PFK-158 at doses that were considered to be sub-therapeutic has been observed. […] This breast adenocarcinoma patient received 96 mg/M^2 of PFK-158 every other day for three weeks followed by a one week rest—this cycle was repeated for a total of four cycles. Peripheral blood mononuclear cells were collected on days 1, 8, 15, 22 and 62 and flow cytometry was conducted for a multitude of immunosuppressive cells and activated T cells. […] These cells are the main CD8+ T cells that can infiltrate tumors and differentiate into cytolytic T cells which kill tumor cells.
In cancer patients, a distinct population of CD8+ arises that form the main tumor infiltrating cytolytic T cells—these cells are CD8+/CD57+/CD27-/CD28- and express the immune checkpoint protein PD-1 (which attenuates their activity) (Gros, et al., PD-1 identifies the patient-specific CD8(+) tumor-reactive repertoire infiltrating human tumors, J. Clin. Invest. 124:2246-59 (2014)).
IL-17 derived from both Th17 and γδT17 cells has been established to promote MDSCs which in turn suppress cytotoxic T cell function and infiltration. […] Since these cells are considered to be tumor-reactive CD8^+ T cells, it was postulated that the observed reduction in the peripheral blood after 3 weeks may be due to homing to metastases.
Given the decrease in Th17 cells and increase in effector CD8^+ T cells observed after PFK-158 administration, the ability of PFK-158 to cause an increase in terminally-differentiated CD8^+ effector cells was examined. CD8^+CD57^+CD27^− TCD28^− The breast cancer patient described in Example 7 was administered PFK-158 for 1 cycle and PBMCs were collected at baseline, day 8, 15, 22, and then analyzed for CD8^+CD57^+CD27^− TCD28^− T cells and PD-1. T cells are elevated in the tumors and peripheral blood of cancer patients where they are believed to control tumor growth through their antigen-specific cytolytic activity.
CD57 is a terminally sulfated carbohydrate that is selectively expressed on antigen-specific, and functionally competent memory/effector CD8^+ T cells. A sub-analysis was conducted of the CD8^+CD57^+CD27^− TCD28^− T cells for relative CD57 expression. PBMCs were collected at baseline, day 8, 15, and 22 and CD8^+CD57^+CD27^− CD28^− T cells were analyzed for CD57 expression.
Importantly, Treg frequencies also were reduced by PFK-158 as observed in the mouse model (FIG. 22A).

B16-F10 melanoma tumors = test: Flow cytometry of splenic and tumor-infiltrating immune cells in B16-F10 melanoma-bearing mice; format: in vivo, C57BL/6 mice; conditions: 60 mg/kg IP×3 days
cancer patients = test: Phase 1 trial of PFK-158 in cancer patients (clinical response, tolerability); format: in vivo
Method: A phase 1 trial of PFK-158 in cancer patients is currently being conducted at Georgetown University, UT Southwestern, Md. Anderson Cancer Center and the U. of Louisville (clinicaltrials.gov# NCT02044861). […] Institutional investigators have observed partial tumor regressions in 3 patients with ocular melanoma, ovarian cancer and renal cell carcinoma and de novo stabilization of tumor burden in 2 patients (breast and adenoid cystic carcinoma). A person with ocular melanoma was administered 24 mg/M^2 in cohort 1 of the phase 1 trial of PFK-158—a dose that is markedly lower than that required to cause the known cytotoxic effects of PFK-158. […] Over the course of six months of therapy, several of the patient's hepatic metastases first became necrotic after 2 monthly cycles (hypoattenuation appears dark on CT imaging) and then shrunk after 6 cycles (FIG. 18).
The patient was administered PFK-158 for 4 cycles and their bony metastases were deemed to be stable (FIG. 19, left two panels) and several liver metastases became necrotic (FIG. 19, right panel).
(§1) 18 cancer patients completed 2 cycles of 24-470 mg/M^2 PFK-158; 5 of these patients experienced stabilization of their disease (i.e. no growth and no new tumors) and tumor regressions have been observed in multiple patients. For example, a person with renal cell carcinoma who had progressed after all available FDA-approved agents including mTOR and VEGFR inhibitors and IL-2 entered the study (470 mg/M^2). They experienced stabilization of disease by immune-related response criteria (26% reduction in maximum diameters) with multiple tumors regressing and has entered their seventh month of treatment. Of these 18 patients, immunophenotyping by flow cytometry on 4 patients' PBMCs has been carried out. These four patients were administered PFK-158 for 2 weeks and PBMCs were collected at baseline, day 15, and then analyzed by flow cytometry for CD3+CD4+il-17+ cells and CD8+CD137+ T cells.

M-MDSCs = test: Antigen-specific T cell suppressive function of murine MDSCs against OT-II splenocytes; format: cell-based; conditions: ex vivo treatment; M-MDSCs from spleens of B16-F10 tumor-bearing mice
A375-MDSC [3] = test: T cell suppression by A375-MDSCs exposed to PFK-158 during differentiation; format: cell-based, human; conditions: 5 μM on day 0 and 5 μM on day 2 of A375:monocyte co-culture
PBMCs = test: Immunophenotyping by flow cytometry of PBMCs of 4 metastatic cancer patients; format: in vivo, human; conditions: 4 patients; after 15 days of administration
Method: as §1

[4] = 96 mg/M^2 every other day, after PFK-158 administration vs baseline

In the case of O=C(/C=C/c1ccc2ccc(C(F)(F)F)cc2n1)c1ccncc1 [PFK-158, (E)-1-(pyridyn-4-yl)-3-(7-(trifluoromethyl)quinolin-2-yl)-prop-2-en-1-one], the “ability of MDSCs to suppress T cell activation” value (A375-MDSC [1]) is reported as “deficient”, the “peripheral blood Treg cells” value [2, 4] is reported as “reductions; also recorded: reduced” and the “peripheral blood γδT-17 cells” value [2, 4] is reported as “reductions; also recorded: acute drop”. The “peripheral blood Th17 cells” value ([2]; 96 mg/M^2 every other day, days 8, 15, 22 (and 62) vs baseline) was “reductions; also recorded: cumulative reduction; also recorded: acute drop”, the “activatable CD8+ T cells (intracellular interferon-γ and tumor necrosis factor-α after PMA/ionomycin)” value ([2]; FIG. 13) was “marked increase” and the “PD-1 expression on CD8+/CD57+/CD27-/CD28- T cells” value ([2]; FIG. 15, FIG. 20) was “marked decrease; also recorded: near complete loss”. For the same compound, the “peripheral blood monocytic MDSCs (M-MDSC)” value ([2]; FIG. 22A) was “acute drop”, the “CD8+CD137+ T cells” value ([2]; after the 3rd week of administration) was “reduction to near baseline” and the “CD4+CD69+ and CD8+CD69+ T cells” value ([2]; after the third week of administration) was “returned to baseline”. For the same compound, the “CD57 expression on CD8+CD57+CD27-CD28- T cells versus PFK-158 exposure” value ([2]; baseline, day 8, 15, 22) was “positive correlation”, the “CD8+CD137+ T cells” value ([2]; first 14 days of administration) was “marked increase” and the “activated CD4+ and CD8+ T cells (CD69)” value ([2]; first two weeks / particularly after two cycles of treatment) was “marked increase; also recorded: dramatically increased”. For the same compound, the “splenic Th17 and γδT17 cells (intracellular cytokine staining for IL-17)” value (B16-F10 melanoma tumors; FIG. 1) was “marked decrease”, the “splenic and intratumoral Th17 cells and γδT17 cells (retinoid-related orphan receptor marker)” value (B16-F10 melanoma tumors; FIG. 2) was “marked decrease” and the “intratumoral Treg CD4+ and CD8+ cells (FoxP3 marker)” value (B16-F10 melanoma tumors; FIG. 3) was “marked decrease”. The “intratumoral functional MDSCs (intermediate GR1)” value (B16-F10 melanoma tumors; FIG. 4) was “reduced”, the “CD4+ T cells and CD8+ in the tumors” value (B16-F10 melanoma tumors; FIG. 5) was “increased” and the “CD19+ B cells in the tumors” value (B16-F10 melanoma tumors; FIG. 6) was “marked increase”. The “clinical response of breast cancer patient” value (cancer patients; 96 mg/M^2 every other day, 4 cycles) was “stabilization of their breast tumors; also recorded: stabilization of their bone metastases”, the “duration of stable disease in several patients” value (cancer patients; dose escalation portion of the phase 1 trial) was “up to six” and the “clinical response of ocular melanoma patient” value (cancer patients; person, 24 mg/M^2, cohort 1, six months of therapy) was “regression of multiple hepatic metastases; also recorded: clear clinical response”. For the same compound, the “antigen-specific suppressive function of M-MDSCs” value (M-MDSCs) was “reversed”, the “ability of MDSCs to suppress T cell activation induced by anti-CD3/anti-CD28 beads” value (A375-MDSC [3]) was “marked reduction” and the “fraction of patients with an increase in frequency of CD8+CD137+ T cell subset” value (PBMCs) was “¾”.
